From article PMC6483171
For at least one entry, the source does not settle the construct or the ends of the probe. For some of these results: The comparison behind a weaker result is the experiment's own reference, which may not be listed here.

Assays:
[1] = system: GST-Com (zinc finger protein Com) (Haemophilus sputorum Mu-like prophage); assay: EMSA; conditions: EMSA: 50 mM Tris pH 7, 50 mM NaCl, 2.5 mM MgCl2, 20 uM ZnSO4, 1 mM DTT, 10% glycerol, 0.1% Igepal, 1 ug BSA, 2 ug dI-dC, ~4 pmol RNA, 1 h room temperature, recombinant protein, protein details: N-terminal GST, S-H linker, label: 5' 32P/33P (EMSA)
[2] = system: GST-Com (zinc finger protein Com) (Haemophilus sputorum Mu-like prophage); assay: SHAPE footprinting; conditions: UV 254 nm crosslinked, 125:1 protein:RNA, recombinant protein, protein details: N-terminal GST, S-H linker, label: 5' 32P/33P (EMSA)
[3] = 0-2000 nM Com, 2.5 mM Mg2+, 20 uM Zn2+

| Sequence | binding result ([2]; both GA protected) | binding result [1, 3] | other results |
| --- | --- | --- | --- |
| AGAGAACCCGGAGUUCCCU / AGAGAACCCGGAGUUCCCU [RNA II (self-complementary duplex)] | binds | – | binding result ([1]; 0-2000 nM Com, duplex bound only after all hairpin molecules were bound): binds more weakly |
| AGAGAACCCGGAGUUCCCU [RNA II (monomeric hairpin form)] | – | – | binding result ([1]; 0-2000 nM Com, hairpin form bound before duplex): binds |
| CGAGAACCAGAGAGUUCCGG [RNA I] | binds | binds | – |
| CGCGUACAAGUGAGUACCGG [RNA IB] | – | – | binding result ([1]; 2000 nM Com, 'very little binding', later called lack of binding): binds more weakly |
| CUGCAACCAGAGAGUUGCGG [RNA IA] | – | – | binding result ([1]; 2000 nM Com, less efficient than RNA I): binds more weakly; binding result ([2]; GA protected): binds |
| GAAUGCCUGCGAGCAUCCC [19-mer Mom RNA] | binds | binds | – |
